Laboratory results: PubChem BioAssay AID652272 (Drosophila RNAi Screening Center, 2013)

Purpose: 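Genome-wide knock-down search for components of Hedgehog signalling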 (primary screen)
Cell system: Drosophila clone 8 (Cl8) cells
Reagent: long dsRNA against Drosophila genes
Measured: 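Firefly light from a Hedgehog-responsive ptc promoter reporter and Renilla reference light, both read on a plate reader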
Direction: firefly Hh reporter signal: higher = more ptc reporter light; Renilla reference signal: higher = more Renilla control light
Rule for the call: 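Called a hit if the two-replicate mean z-score lies below -2 or above +3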
Meaning of the calls: active = hit: reporter lowered or raised; inactive = not a hit
In all, the deposit lists about 21,000 reagents; shown is an unselected part of those that have a named target and a result. Over the whole deposit, 503 (2.4%) got an active call. 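Raw plate light values, not normalised; calls rest on replicate z-scores that were not deposited; hits include reporter decreases as well as increases.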 Names joined by + are all predicted targets of the reagent. No sequences are given here. The record does not give: the amount of reagent, the time to read-out.

gene	DRSC id	firefly Hh reporter signal, replicate 1	firefly Hh reporter signal, replicate 2	firefly Hh reporter signal, replicate 3	Renilla reference signal, replicate 1	Renilla reference signal, replicate 2	call
aos	DRSC11323	97241			5028	2807	inactive
yps	DRSC11411	44842	40580	32277	6084	2981	inactive
Nelf-E	DRSC10567	47024	49341		7228	3997	inactive
Cpr49Ag	DRSC07203	1.23e5	1.25e5		3041	7960	inactive
Snx21	DRSC00564	82423	73760		3382	3155	inactive
CG1850	DRSC06762	94793	51920		2347	4914	inactive
CG14259	DRSC14754	64490	1.03e5		1816	3412	inactive
Fmo-2	DRSC04983	1.12e5	87971		4224	3636	inactive
CG15213	DRSC10213	73482	82093		8599	6566	inactive
Hsl	DRSC06028	1.26e5	64256		5024	2737	inactive
isoQC	DRSC11790	79090	83617		2723	2304	inactive
cmb	DRSC09790	55472	34744	60848	2992	4426	inactive
LamC	DRSC07453	1.08e5	70978		4453	2604	inactive
Snx16	DRSC06984	91594	39740		2546	2752	inactive
Graf	DRSC20131	74288	61289		2011	1548	inactive
Loxl2	DRSC04469	66788	66758		2675	2832	inactive
CG17806	DRSC15276	1.54e5	77232		6856	3168	inactive
Mfe2	DRSC19869	74139	81629		1824	1793	inactive
Dic61B	DRSC08588	54488	41968		3626	2262	inactive
Sirup	DRSC03031	1.38e5	88167		3569	6864	inactive
CG14182	DRSC10181	97578	93801		3467	2727	inactive
bs	DRSC04676	2.65e5	1.32e5	90973	18793	3808	active
Toll-9	DRSC11776	65821	55541		2755	2352	inactive
CG17568	DRSC02628	1.06e5	5.36e5	82365	2568	30321	inactive
Wsck	DRSC13682	52307	1.74e5		12412	3969	inactive
Prestin	DRSC10507	91060			1177	4336	inactive
CG10194	DRSC02025	1.02e5	90119		4632	3773	inactive
Mocs1	DRSC11225	49590	55400	52633	4394	3313	inactive
CG30259	DRSC04164	1.30e5	79048		3644	6301	inactive
CG30259	DRSC04165	93975	78295		2416	7321	inactive
CG11841	DRSC14399	82960	1.22e5		1716	3323	inactive
Rh4	DRSC11268	2.07e5			9601	5256	inactive
lncRNA:CR42862 + CG33229	DRSC08497	1.45e5	89680		5977	3635	inactive
Teh2	DRSC08458	1.04e5	56888		2644	4547	inactive
lncRNA:CR43493 + l(1)G0196	DRSC20628	93136	94213		2512	2544	inactive
baf	DRSC03051	1.16e5	59568		3088	5842	inactive
Atac2	DRSC02053	86372	58624		3376	2453	inactive
CG13384	DRSC02258	81841	35629		3315	1367	inactive
PpD3	DRSC16796	62984	1.38e5		1181	2816	inactive
Ifrd1	DRSC00415	1.00e5	69560		1824	6630	inactive
Ifrd1	DRSC00566	1.28e5	68439		1995	6896	inactive
CG7848	DRSC07050	73041	56112		1954	4336	inactive
ATbp	DRSC20906	49989	1.15e5		1018	5923	inactive
Msp300	DRSC00854	5.98e5	1.87e5		28339	7955	inactive
Msp300	DRSC00856	6.86e5	2.22e5		33333	10138	inactive
Msp300	DRSC00857	6.42e5	2.34e5		32844	9931	inactive
Msp300	DRSC00858	4.98e5	1.68e5		23068	7421	inactive
Msp300	DRSC02360	85520	45240		2554	4096	inactive
Msp300	DRSC03369	68080	57475		3408	2624	inactive
Msp300	DRSC03370	1.16e5	61817		3120	6394	inactive
CG11878	DRSC14422	4.39e5	84677		24724	2608	inactive
Pcif1	DRSC11655	74169	46218		3680	2064	inactive
Poc1	DRSC09713	76469	82204		3990	3425	inactive
CG42788	DRSC15330	80722	80038		2265	2473	inactive
CG42788	DRSC16139	68192	1.00e5		2368	2916	inactive
CG42788	DRSC16152	50247	87416		1175	2260	inactive
Usp30	DRSC18265	80417	1.69e5		3072	6688	inactive

Targets above whose gene name starts with I or i (3):
gene	DRSC id	firefly Hh reporter signal, replicate 1	firefly Hh reporter signal, replicate 2	firefly Hh reporter signal, replicate 3	Renilla reference signal, replicate 1	Renilla reference signal, replicate 2	call
isoQC	DRSC11790	79090	83617		2723	2304	inactive
Ifrd1	DRSC00415	1.00e5	69560		1824	6630	inactive
Ifrd1	DRSC00566	1.28e5	68439		1995	6896	inactive
